{
  "source": "PubChem BioAssay AID624305",
  "about": "(National Center for Advancing Translational Sciences (NCATS), 2012)",
  "note": "This list was built around the results that the source calls inconclusive (neither active nor inactive); the mix of calls is not that of the screen. Potencies beside an inconclusive call are fits to weak or partial responses and may not hold up. Activity calls are given as the source filed them. Calls come from the whole dose curve; as a rule, active = well fitted activation curve with a large enough effect; inconclusive = small, poorly fitted or top-dose-only effect; inactive = no such curve, though single readings can be large or run the other way. Potency is the fitted concentration of half-maximal effect.",
  "data": [
    {"assay": "qHTS assay for re-activators of p53 using a Luc reporter: Hit Validation; note: nearly all actives have a fitted effect of over 75% in size", "conditions": "p53-responsive luciferase reporter cells, luminescence, H1299 line expressing heat-sensitive Ala138Val p53; series mostly up to 46.1 µM", "method_in_brief": "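Hit confirmation with a 1:5 dilution series, at 37 deg C for 24 hrs, in H1299 cells co-expressing temperature-sensitive p53-A138V and p53-responsive luciferase. Nocodazole served as control; luminescence read after 10 min with detection reagent.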", "values": [
      {"smiles": "O=C1/C(=C/Nc2ccc3c(c2)OCO3)CCc2ccccc21", "Potency": "inconclusive: 0.058 µM [activator, full curve, poor fit]"},
      {"smiles": "Cc1ccccc1Nc1nc(N)nc(COC(=O)c2ccco2)n1", "Potency": "inconclusive: 36.6 µM [activator, single point]"},
      {"smiles": "Cc1cc(NC(=O)c2cccc(COc3ccc(Br)cc3)c2)no1", "Potency": "inconclusive: 0.366 µM [activator, full curve]"},
      {"smiles": "COc1ccc2c(c1)Cc1sc(NC(C)=O)nc1-2", "Potency": "active: 11.6 µM"}
    ]}
  ]
}
